# Experimental data taken from doi:10.1101/2023.09.21.558912.
# Protein sequences, listed by entry. Tags and fused reporters are not part of them.
# UniProt Q92769: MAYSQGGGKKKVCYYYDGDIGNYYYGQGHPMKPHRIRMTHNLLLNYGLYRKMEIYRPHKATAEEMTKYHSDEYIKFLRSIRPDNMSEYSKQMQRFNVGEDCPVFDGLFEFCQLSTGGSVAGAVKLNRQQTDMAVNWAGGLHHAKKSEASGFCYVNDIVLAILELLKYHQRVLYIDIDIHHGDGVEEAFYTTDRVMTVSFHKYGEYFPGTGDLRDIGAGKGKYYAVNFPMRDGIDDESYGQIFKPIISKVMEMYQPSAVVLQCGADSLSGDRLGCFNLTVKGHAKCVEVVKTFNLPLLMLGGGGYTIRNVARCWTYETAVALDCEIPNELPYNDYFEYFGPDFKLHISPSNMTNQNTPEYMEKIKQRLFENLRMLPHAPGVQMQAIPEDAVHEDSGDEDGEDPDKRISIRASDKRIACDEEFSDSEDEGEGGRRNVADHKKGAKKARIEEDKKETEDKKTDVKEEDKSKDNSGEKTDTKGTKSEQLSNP
# No constants are given. Whether binding was seen depends on the method and setting. Sequences can lack the tags named with a protein.
# B1: recombinant SUMO-tagged NARS2 (enzyme, UniProt Q96I59 15-477)
# chain: SSAPFPKHKPSAKLSVRDALGAQNASGERIKIQGWIRSVRSQKEVLFLHVNDGSSLESLQVVADSGLDSRELNFGSSVEVQGQLIKSPSKRQNVELKAEKIKVIGNCDAKDFPIKYKERHPLEYLRQYPHFRCRTNVLGSILRIRSEATAAIHSFFKDSGFVHIHTPIITSNDSEGAGELFQLEPSGKLKVPEENFFNVPAFLTVSGQLHLEVMSGAFTQVFTFGPTFRAENSQSRRHLAEFYMIEAEISFVDSLQDLMQVIEELFKATTMMVLSKCPEDVELCHKFIAPGQKDRLEHMLKNNFLIISYTEAVEILKQASQNFTFTPEWGADLRTEHEKYLVKHCGNIPVFVINYPLTLKPFYMRDNEDGPQHTVAAVDLLVPGVGELFGGGLREERYHFLEERLARSGLTEVYQWYLDLRRFGSVPHGGFGMGFERYLQCILGVDNIKDVIPFPRFPHSCLL
# Biological target: recombinant HDAC2 (UniProt Q92769)
# Experiment: co-IP
binder,measurement,value
B1,binding,no binding
